# In patent publication US20080267996A1 (priority 2005, published 2008):
# “Also recorded” adds a separate entry of the source. For at least one compound, name, drawing or mass did not settle the structure.
# Tests used:
# [1] = system: HBsAg antigen-derived overlapping peptides; conditions: human, in vivo
# [2] = system: HBV; conditions: patients with chronic HBV infection; levels return to baseline on cessation; cited from earlier work
smiles,measurement,setting,value
"Nc1ccn([C@@H]2CS[C@H](CO)O2)c(=O)n1 [lamivudine, Lamivudine]","IVS IFN-γ ELISPOT response (summed peptide responses), in words",[1],mild transient response; also recorded: no marked effect
same,plasma levels of HBV DNA,[2],rapid decrease
